# Results: publication PMC5996148
# This is one part of the list.
# Tests used:
# Assay in all cases: protein microarray (ProtoArray v5.0), streptavidin-Alexa Fluor 647
# Conditions in all cases: 3'-biotin; 20 mM Tris (pH 7.5), 5 mM MgCl2, 100 mM KCl, 0.1% Tween-20, A/T-rich and random oligonucleotide blockers; temperature not stated; high values mean tight binding
# LOC554203 (human) = system: LOC554203 (human)
# LOC554207 (human) = system: LOC554207 (human)
# LOC57228 (human) = system: LOC57228 (human)
# LOC645676 (human) = system: LOC645676 (human)
# LOC90925 (human) = system: LOC90925 (human)
# LOC94431 (human) = system: LOC94431 (human)
# LOH12CR1 (human) = system: LOH12CR1 (human)
# LONRF2 (human) = system: LONRF2 (human)
# LPAL2 (human) = system: LPAL2 (human)
# LPXN (human) = system: LPXN (human)
sequence,measurement,setting,value
GGGAGGCTGAGGCAGG [G4-1 biotinylated (PQS2)],binding signal,LOC554203 (human),-0.359 z-score
same,binding signal,LOC554207 (human),-0.326 z-score
same,binding signal,LOC57228 (human),3.31 z-score
same,binding signal,LOC645676 (human),-0.247 z-score
same,binding signal,LOC90925 (human),-0.302 z-score
same,binding signal,LOC94431 (human),-0.322 z-score
same,binding signal,LOH12CR1 (human),-0.343 z-score
same,binding signal,LONRF2 (human),-0.318 z-score
same,binding signal,LPAL2 (human),-0.276 z-score
same,binding signal,LPXN (human),-0.345 z-score

# Some of the entries so far, bar-delimited:
sequence | measurement | setting | value
GGGAGGCTGAGGCAGG [G4-1 biotinylated (PQS2)] | binding signal | LPAL2 (human) | -0.276 z-score
same | binding signal | LPXN (human) | -0.345 z-score
